Measured values from patent publication US6403864B1, “Precursor polypeptide of a plant growth factor, a gene encoding a precursor polypeptide of a plant growth factor and a method for promotion of plant growth” (Nagoya University, priority 1999, dated 2002).

System: rice Oc cells
Assay: LC-MS measurement of PSK-α and its analogs accumulated in conditioned medium of control or transgenic Oc cells
Format: cell-based
Settings: for Accumulation of PSKs in conditioned medium: one week cultivation, mean of three experiments ± SD; for Total amount of [Ser^4]PSK-α and -β relative to wild type PSK-α and -β: [Ser^4]mutant transformant CM; for Concentration in CM of the sense transformant relative to control: sense transformant vs control
Description: The amounts of PSK-α and its analogs, released into medium by wild type strain or transformant, was measured by liquid chromatography/ mass spectrometry (LC-MS) analysis. Conditioned medium (CM) derived from 14-day cultured wild or transformed Oc cells was chromatographed on DEAE Sephadex A-25 column. PSK-α and PSK-β contained in 800 and 1,200 mM KCl fractions were adsorbed on Sep-Pak Vac Cartridges, eluted with 30% acetonitrile containing 0.1 % trifluoroacetic acid, and lyophilized. Mass spectra were obtained using a Fisons VG platform quadruple mass spectrometer with electrospray ionization interfaced to a Jasco PU980 HPLC system. The fractions containing PSKs were dissolved in 200 μl of water and separated on a reverse-phase HPLC column (4.6×250 mm) with 10% acetonitrile containing 0.1% trifluoroacetic acid at 1.0 ml/min. The pseudomolecular ions of PSKs were monitored by scanning every 1.9 s in the selective ion monitoring mode. Amino acid sequences of the peptides were determined by Applied Biosystems model 490 sequencer.
Furthermore, OsPSK cDNA was introduced in sense and antisense orientation into Oc cells using the same binary vector. Then the amounts of PSK-α and -β were analyzed by LC-MS. The control or transformed Oc cells (0.8 g) were planted in 100 ml of fresh medium, and the amounts of PSK-α and its analogs were analyzed after one week cultivation. The results indicated by the average values of three independent experiments with standard deviations were shown in Table 1 (unit of concentration: nM). PSK-α and -β accumulated in the CM of the sense transformant were 1.6 times as concentrated as in the control. The increase of PSK secretion was proven to be caused by introduction of the gene. The amounts of PSK-α and -β accumulated in the antisense transformant CM were less than 60% of the mean control level, indicating decrease of PSK secretion.

[1] = Antisense OsPSK transformed Oc cells
[2] = Control Oc cells, 0.8 g cells in 100 ml fresh medium
[3] = Sense OsPSK transformed Oc cells
[4] = [Ser^4]mutant cDNA transformed Oc cells

## Y(SO3H)IY(SO3H)S [[Ser^4]PSK-β]
[1]
  Accumulation of PSKs in conditioned medium: 0 nM
[2]
  Accumulation of PSKs in conditioned medium: 0 nM
[3]
  Accumulation of PSKs in conditioned medium: 0 nM
[4]
  Accumulation of PSKs in conditioned medium: 105.2 ± 8.9 nM
  Total amount of [Ser^4]PSK-α and -β relative to wild type PSK-α and -β: about 34%

## [sY]I[sY]T [PSK-β]
[1]
  Accumulation of PSKs in conditioned medium: 175.8 ± 15.4 nM
[2]
  Accumulation of PSKs in conditioned medium: 332.7 ± 20.1 nM
[3]
  Accumulation of PSKs in conditioned medium: 555.7 ± 31.1 nM
[4]
  Accumulation of PSKs in conditioned medium: 302.5 ± 15.8 nM
  Concentration in CM of the sense transformant relative to control: 1.6 times

## [sY]I[sY]TQ [PSK-α]
[1]
  Accumulation of PSKs in conditioned medium: 7.3 ± 0.4 nM
[2]
  Accumulation of PSKs in conditioned medium: 12.6 ± 1.1 nM
[3]
  Accumulation of PSKs in conditioned medium: 21.0 ± 1.9 nM
[4]
  Accumulation of PSKs in conditioned medium: 11.5 ± 0.9 nM
  Concentration in CM of the sense transformant relative to control: 1.6 times

## Y(SO3H)IY(SO3H)SQ [[Ser^4]PSK-α]
[1]
  Accumulation of PSKs in conditioned medium: 0 nM
[2]
  Accumulation of PSKs in conditioned medium: 0 nM
[3]
  Accumulation of PSKs in conditioned medium: 0 nM
[4]
  Accumulation of PSKs in conditioned medium: 3.1 ± 0.3 nM
  Total amount of [Ser^4]PSK-α and -β relative to wild type PSK-α and -β: about 34%

Where no end group is shown, it is not given here. [ ]: non-standard residue; d: D form. sY = N[C@@H](Cc1ccc(OS(=O)(=O)O)cc1)C(=O)O
